Test results reported in patent publication US20060161221A1, “Activation of calcium-mediated cell functions in cells and tissues, including aggregation of human platelets, by nanosecond pulsed electric fields” (priority 2004, published 2006).
At least one structure is not confirmed: it was looked up by name or label, or the drawing left a doubt.

Tested on: HL-60 cells
Test: Fura-2 measurement of agonist-induced calcium mobilization with and without BAPTA, media without calcium
Format: cell-based, human
Conditions: absence of BAPTA
Source text: Cell culture—Non-transformed HL-60 and Jurkat cells were obtained from and cultured as recommended by American Type Culture Collection (ATCC, Rockville, Md.) as previously described (Beebe, S. J., et al. (2002). IEEE Trans. Plasma Sci. 30:1 Part 2, 286-292; Beebe, S. J., et al. (2003). FASEB J. 17, 1493-1495). Cells were removed from log phase growth and suspended in Hanks Balanced Salt Solution (HBSS) in the presence or absence of Ca^2+ and Mg^2+. When calcium was omitted, cells were washed several times in buffer without added calcium. In other experiments, the calcium chelator BAPTA was added to chelate intracellular calcium. Cells were loaded with BAPTA-AM and washed in HBSS before the addition of agonists.
To be certain that BAPTA was able to chelate all intracellular calcium, two agents that mobilize calcium by two different mechanisms were used and the calcium concentration in the cell was directly measured using the fluorescent calcium indicator fura-2. Cells were loaded with Fura2 and BAPTA and tested in media without calcium. The first agonist tested was the purinergic agonist ATP, which leads to the release of intracellular calcium through a phospholipase C— and IP3-mediated mechanism through the IP3 receptor in the endoplasmic reticulum (Berridge, M. J. et al. (1998) Nature 395, 645-648). […]

For `CC(=O)C1=C(O)[C@@H]2[C@H]3c4c[nH]c5cccc(c45)C[C@H]3C(C)(C)N2C1=O` [CPA, cyclopiazonic acid], the “calcium mobilization (fura-2)” value was “slow and sustained release”.
